Measurements published in the supplement of paper PMC7661543.
Differences between knockout arms are mostly noise.

Tested on: HCC-38
Assay: relative cell number vs DMSO control (72 h) (% of DMSO); higher = less growth inhibition (more cells)
Method: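 QMAP-Seq: a pool of 5 breast cancer cell lines (ZR-75-1, SKBR3, HCC-38, MDA-MB-231, BT-20), each carrying 12 doxycycline-inducible Cas9 sgRNA perturbations (11 knockouts plus non-targeting sgNT), was treated with compounds for 72 h at four 10-fold doses (10 nM-10 uM or 1 nM-1 uM range). Barcodes were amplified and sequenced, and cell number was interpolated from 293T spike-in standard curves. The result is expressed as % of the median of DMSO wells. Two biological replicates.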

CN1CCN(c2ccc(C(=O)Nc3n[nH]c4ccc(Cc5cc(F)cc(F)c5)cc34)c(NC3CCOCC3)c2)CC1 [Entrectinib]
Conditions | relative cell number
sgRNA knockout: sgATF3, 1 nM | 94.58
sgRNA knockout: sgATF3, 10 nM | 102
sgRNA knockout: sgATF3, 100 nM | 97.6
sgRNA knockout: sgATF3, 1000 nM | 88.6
sgRNA knockout: sgATF4, 1 nM | 80.9
sgRNA knockout: sgATF4, 10 nM | 109
sgRNA knockout: sgATF4, 100 nM | 86.7
sgRNA knockout: sgATF4, 1000 nM | 81.4
sgRNA knockout: sgATF6, 1 nM | 97
sgRNA knockout: sgATF6, 10 nM | 116.7
sgRNA knockout: sgATF6, 100 nM | 92
sgRNA knockout: sgATF6, 1000 nM | 96.6
sgRNA knockout: sgATG7, 1 nM | 87
sgRNA knockout: sgATG7, 10 nM | 106.6
sgRNA knockout: sgATG7, 100 nM | 93.8
sgRNA knockout: sgATG7, 1000 nM | 77.6
sgRNA knockout: sgERN1, 1 nM | 90.6
sgRNA knockout: sgERN1, 10 nM | 104.7
sgRNA knockout: sgERN1, 100 nM | 97
sgRNA knockout: sgERN1, 1000 nM | 90.7
sgRNA knockout: sgHSF1, 1 nM | 94.6
sgRNA knockout: sgHSF1, 10 nM | 103
sgRNA knockout: sgHSF1, 100 nM | 98.1
sgRNA knockout: sgHSF1, 1000 nM | 98.7
sgRNA knockout: sgHSF2, 1 nM | 81.2
sgRNA knockout: sgHSF2, 10 nM | 106
sgRNA knockout: sgHSF2, 100 nM | 96.1
sgRNA knockout: sgHSF2, 1000 nM | 83.2
sgRNA knockout: sgKEAP1, 1 nM | 97.1
sgRNA knockout: sgKEAP1, 10 nM | 127
sgRNA knockout: sgKEAP1, 100 nM | 102
sgRNA knockout: sgKEAP1, 1000 nM | 84.3
sgRNA knockout: sgNFE2L2, 1 nM | 85.1
sgRNA knockout: sgNFE2L2, 10 nM | 104
sgRNA knockout: sgNFE2L2, 100 nM | 82.6
sgRNA knockout: sgNFE2L2, 1000 nM | 73.1
sgRNA knockout: sgSLC35F2, 1 nM | 88.02
sgRNA knockout: sgSLC35F2, 10 nM | 107
sgRNA knockout: sgSLC35F2, 100 nM | 92.5
sgRNA knockout: sgSLC35F2, 1000 nM | 93.5
sgRNA knockout: sgXBP1, 1 nM | 87.69
sgRNA knockout: sgXBP1, 10 nM | 96.6
sgRNA knockout: sgXBP1, 100 nM | 86.8
sgRNA knockout: sgXBP1, 1000 nM | 82.4

CC(C)(C#N)c1ccc(N2C(=O)OCc3cnc4ccc(-c5cnc6ccccc6c5)cc4c32)cc1
Conditions | relative cell number
sgRNA knockout: sgATF3, 10 nM | 105
sgRNA knockout: sgATF3, 100 nM | 88.9
sgRNA knockout: sgATF3, 1000 nM | 78.1
sgRNA knockout: sgATF3, 10000 nM | 39.2
sgRNA knockout: sgATF4, 10 nM | 101
sgRNA knockout: sgATF4, 100 nM | 102
sgRNA knockout: sgATF4, 1000 nM | 82.9
sgRNA knockout: sgATF4, 10000 nM | 41.5
sgRNA knockout: sgATF6, 10 nM | 92.3
sgRNA knockout: sgATF6, 100 nM | 103
sgRNA knockout: sgATF6, 1000 nM | 77.6
sgRNA knockout: sgATF6, 10000 nM | 35.3
sgRNA knockout: sgATG7, 10 nM | 97
sgRNA knockout: sgATG7, 100 nM | 96.4
sgRNA knockout: sgATG7, 1000 nM | 77.6
sgRNA knockout: sgATG7, 10000 nM | 39.8
sgRNA knockout: sgERN1, 10 nM | 105
sgRNA knockout: sgERN1, 100 nM | 97.9
sgRNA knockout: sgERN1, 1000 nM | 87.5
sgRNA knockout: sgERN1, 10000 nM | 44.7
sgRNA knockout: sgHSF1, 10 nM | 99
sgRNA knockout: sgHSF1, 100 nM | 100
sgRNA knockout: sgHSF1, 1000 nM | 81.1
sgRNA knockout: sgHSF1, 10000 nM | 47.2
sgRNA knockout: sgHSF2, 10 nM | 100
sgRNA knockout: sgHSF2, 100 nM | 99.5
sgRNA knockout: sgHSF2, 1000 nM | 71.1
sgRNA knockout: sgHSF2, 10000 nM | 42.8
sgRNA knockout: sgKEAP1, 10 nM | 91
sgRNA knockout: sgKEAP1, 100 nM | 94.3
sgRNA knockout: sgKEAP1, 1000 nM | 64.8
sgRNA knockout: sgKEAP1, 10000 nM | 44.1
sgRNA knockout: sgNFE2L2, 10 nM | 100
sgRNA knockout: sgNFE2L2, 100 nM | 92
sgRNA knockout: sgNFE2L2, 1000 nM | 78.8
sgRNA knockout: sgNFE2L2, 10000 nM | 39.5
sgRNA knockout: sgSLC35F2, 10 nM | 104
sgRNA knockout: sgSLC35F2, 100 nM | 107
sgRNA knockout: sgSLC35F2, 1000 nM | 80.2
sgRNA knockout: sgSLC35F2, 10000 nM | 40.1
sgRNA knockout: sgXBP1, 10 nM | 105
sgRNA knockout: sgXBP1, 100 nM | 94.3
sgRNA knockout: sgXBP1, 1000 nM | 76.6
sgRNA knockout: sgXBP1, 10000 nM | 38.7

COc1cc(OC)c(/C=C/S(=O)(=O)Cc2ccc(OC)c(NCC(=O)O)c2)c(OC)c1 [Rigosertib]
Conditions | relative cell number
sgRNA knockout: sgATF3, 10 nM | 90
sgRNA knockout: sgATF3, 100 nM | 41.2
sgRNA knockout: sgATF3, 1000 nM | 27
sgRNA knockout: sgATF3, 10000 nM | 24.053
sgRNA knockout: sgATF4, 10 nM | 99
sgRNA knockout: sgATF4, 100 nM | 46.4
sgRNA knockout: sgATF4, 1000 nM | 23.4
sgRNA knockout: sgATF4, 10000 nM | 20.3
sgRNA knockout: sgATF6, 10 nM | 88.28
sgRNA knockout: sgATF6, 100 nM | 46.9
sgRNA knockout: sgATF6, 1000 nM | 25.8
sgRNA knockout: sgATF6, 10000 nM | 21.7
sgRNA knockout: sgATG7, 10 nM | 88.01
sgRNA knockout: sgATG7, 100 nM | 35.8
sgRNA knockout: sgATG7, 1000 nM | 28.3
sgRNA knockout: sgATG7, 10000 nM | 24.6
sgRNA knockout: sgERN1, 10 nM | 84.7
sgRNA knockout: sgERN1, 100 nM | 41.9
sgRNA knockout: sgERN1, 1000 nM | 26.5
sgRNA knockout: sgERN1, 10000 nM | 26.6
sgRNA knockout: sgHSF1, 10 nM | 101
sgRNA knockout: sgHSF1, 100 nM | 38
sgRNA knockout: sgHSF1, 1000 nM | 23.1
sgRNA knockout: sgHSF1, 10000 nM | 37.2
sgRNA knockout: sgHSF2, 10 nM | 95.3
sgRNA knockout: sgHSF2, 100 nM | 40.7
sgRNA knockout: sgHSF2, 1000 nM | 24.3
sgRNA knockout: sgHSF2, 10000 nM | 25.8
sgRNA knockout: sgKEAP1, 10 nM | 85.3
sgRNA knockout: sgKEAP1, 100 nM | 32.2
sgRNA knockout: sgKEAP1, 1000 nM | 29
sgRNA knockout: sgKEAP1, 10000 nM | 38.5
sgRNA knockout: sgNFE2L2, 10 nM | 96.2
sgRNA knockout: sgNFE2L2, 100 nM | 47
sgRNA knockout: sgNFE2L2, 1000 nM | 22.6
sgRNA knockout: sgNFE2L2, 10000 nM | 21.4
sgRNA knockout: sgSLC35F2, 10 nM | 89.1
sgRNA knockout: sgSLC35F2, 100 nM | 42.8
sgRNA knockout: sgSLC35F2, 1000 nM | 27.5
sgRNA knockout: sgSLC35F2, 10000 nM | 24
sgRNA knockout: sgXBP1, 10 nM | 88.6
sgRNA knockout: sgXBP1, 100 nM | 42.7
sgRNA knockout: sgXBP1, 1000 nM | 28.1
sgRNA knockout: sgXBP1, 10000 nM | 25.2
